PubChem BioAssay AID504774 – Drosophila RNAi Screening Center | 2011

Purpose: 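Knock-downs that shift viability of MMS-exposed cells relative to untreated ones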 (primary screen)
System: Drosophila Kc167 cells
Knock-down reagent: long dsRNA against Drosophila genes, about 0.25 µg dsRNA per well
Timing: about 6 days: 3 days knock-down, then 3 days with or without MMS
Challenge: methyl methanesulphonate 0.004% (w/v) for 3 days after knock-down
Measurement: 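ATP-dependent luminescence as a measure of live cells in MMS-exposed wells, quantile normalised within each plate, with replicate values also given as a mean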
Reading the numbers: mean viability with MMS and viability with MMS: higher = more surviving cells after MMS
In all, the deposit lists about 23,000 reagents; below is a random part of those with a known target gene and a result. 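Values are quantile-normalised luminescence on an arbitrary scale; higher means more cells surviving MMS.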 Reagents against one gene are numbered here.

target gene	reagent no.	mean viability with MMS	viability with MMS, replicate 1	viability with MMS, replicate 2
CstF50 (GeneID 43734)	1	3.43e6	3.99e6	3.80e6
CG13502 (GeneID 37518)	1	3.51e6	4.03e6	3.92e6
Acer (GeneID 34189)	1	3.64e6	4.32e6	3.99e6
CG7376 (GeneID 38715)	1	3.67e6	4.24e6	4.08e6
Vav (GeneID 32920)	1	3.75e6	4.30e6	4.09e6
stai (GeneID 33863)	1	3.35e6	3.84e6	3.90e6
CG11262 (GeneID 39471)	1	3.62e6	4.08e6	4.09e6
CG16743 (GeneID 34517)	1	3.77e6	4.31e6	4.26e6
CG11961 (GeneID 37221)	1	3.69e6	4.14e6	4.22e6
CG13551 (GeneID 50133)	1	3.41e6	3.99e6	3.82e6
vlc (GeneID 46078)	1	3.50e6	4.03e6	3.89e6
MED24 (GeneID 38914)	1	3.29e6	3.66e6	3.71e6
CG11883 (GeneID 36121)	1	3.46e6	3.88e6	3.93e6
Mrm2 (GeneID 42359)	1	3.41e6	3.83e6	3.94e6
Hsp27 (GeneID 39078)	1	3.54e6	4.00e6	4.03e6
CG9331 (GeneID 35347)	1	3.65e6	4.30e6	4.13e6
ca (GeneID 43518)	1	3.65e6	4.06e6	4.18e6
ca (GeneID 43518)	2	3.70e6	4.19e6	4.18e6
ca (GeneID 43518)	3	3.52e6	4.10e6	3.85e6
CG34454 (GeneID 5740130)	1	3.54e6	4.19e6	3.83e6
CG34155 (GeneID 4379867)	1	3.42e6	3.90e6	3.86e6
Jon44E (GeneID 35853)	1	3.38e6	3.84e6	3.81e6
Cipc (GeneID 43177)	1	3.67e6	4.12e6	4.17e6
Cipc (GeneID 43177)	2	3.47e6	3.94e6	3.91e6
sing (GeneID 32644)	1	3.55e6	4.01e6	4.06e6
CCT6 (GeneID 32518)	1	3.22e6	3.77e6	3.37e6
Pex16 (GeneID 40293)	1	3.59e6	4.08e6	4.06e6
CG10864 (GeneID 42222)	1	3.47e6	4.01e6	3.88e6
